# According to paper PMC9264908:
# Amino acid sequences for entries named in this document (tags omitted). A change or cut given only in a name is not applied to a line headed by its entry. Residues count along the entry.
# UniProt Q9NZQ7: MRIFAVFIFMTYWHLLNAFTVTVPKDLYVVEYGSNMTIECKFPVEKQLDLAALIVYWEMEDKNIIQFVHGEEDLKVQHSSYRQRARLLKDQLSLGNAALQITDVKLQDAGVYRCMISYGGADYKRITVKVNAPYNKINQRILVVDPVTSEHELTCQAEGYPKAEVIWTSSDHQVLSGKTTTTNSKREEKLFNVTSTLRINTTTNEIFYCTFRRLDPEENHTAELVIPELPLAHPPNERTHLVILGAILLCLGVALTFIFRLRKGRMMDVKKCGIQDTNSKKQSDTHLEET
# UniProt P08581, residues 25-1390: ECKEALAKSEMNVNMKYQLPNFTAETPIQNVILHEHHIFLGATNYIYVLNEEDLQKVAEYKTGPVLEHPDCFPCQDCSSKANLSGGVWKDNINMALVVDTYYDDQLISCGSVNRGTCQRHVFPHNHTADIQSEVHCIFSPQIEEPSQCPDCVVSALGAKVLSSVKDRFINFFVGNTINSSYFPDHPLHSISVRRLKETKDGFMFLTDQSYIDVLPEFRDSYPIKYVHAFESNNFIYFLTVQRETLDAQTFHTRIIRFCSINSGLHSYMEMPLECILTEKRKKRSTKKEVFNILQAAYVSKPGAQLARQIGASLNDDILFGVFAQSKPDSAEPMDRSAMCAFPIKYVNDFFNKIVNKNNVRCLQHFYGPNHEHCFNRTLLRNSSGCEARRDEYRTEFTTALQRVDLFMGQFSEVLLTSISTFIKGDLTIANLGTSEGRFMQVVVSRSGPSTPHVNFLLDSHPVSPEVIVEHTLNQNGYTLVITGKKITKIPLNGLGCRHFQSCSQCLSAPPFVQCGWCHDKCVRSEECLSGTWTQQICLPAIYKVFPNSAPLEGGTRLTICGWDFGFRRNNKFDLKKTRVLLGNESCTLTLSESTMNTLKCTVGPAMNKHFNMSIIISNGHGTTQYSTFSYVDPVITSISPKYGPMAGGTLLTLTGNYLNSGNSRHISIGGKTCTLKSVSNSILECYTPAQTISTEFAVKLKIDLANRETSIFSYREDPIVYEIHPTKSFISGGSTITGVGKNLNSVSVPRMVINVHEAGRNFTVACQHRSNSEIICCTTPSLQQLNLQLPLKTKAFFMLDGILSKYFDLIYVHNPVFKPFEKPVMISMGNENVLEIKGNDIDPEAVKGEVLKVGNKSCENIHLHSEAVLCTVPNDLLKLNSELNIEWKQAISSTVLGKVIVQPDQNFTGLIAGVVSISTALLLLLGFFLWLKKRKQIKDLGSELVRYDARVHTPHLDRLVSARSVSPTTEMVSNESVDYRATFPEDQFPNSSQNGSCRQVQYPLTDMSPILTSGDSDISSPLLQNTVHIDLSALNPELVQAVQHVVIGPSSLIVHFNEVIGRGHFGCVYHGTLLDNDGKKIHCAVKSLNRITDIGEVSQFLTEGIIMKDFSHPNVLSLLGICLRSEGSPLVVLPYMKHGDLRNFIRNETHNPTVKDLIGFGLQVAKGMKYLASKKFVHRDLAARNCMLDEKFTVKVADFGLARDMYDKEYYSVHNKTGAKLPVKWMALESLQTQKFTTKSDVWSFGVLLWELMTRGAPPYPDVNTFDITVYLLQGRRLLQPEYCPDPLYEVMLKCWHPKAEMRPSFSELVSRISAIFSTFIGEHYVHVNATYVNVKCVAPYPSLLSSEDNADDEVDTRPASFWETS
# Target: recombinant-human PD-L1 (programmed death ligand 1) (human) (UniProt Q9NZQ7)
# Experiment: co-IP; PD-L1 as bait: PDAC cells treated with PD-L1 for 1 h before lysate collection; 1 mg pre-cleared lysate incubated overnight at 4 °C with 75 µg polyclonal anti-PD-L1 or IgG; blot for MET; only the target purified
substance,measurement,value
"c-MET (MET, mesenchymal-epithelial transition factor) (from UniProt P08581 25-1390) (receptor)",binding,no binding

# No constants are given. Whether binding was seen depends on the method and setting. Binding seen in cells or lysates may run through a third protein.
